These results are taken from the supplement of paper PMC12593923.

What all share (experiment): drug sensitivity score (DSS2, cytotoxicity, CellTox Green); higher = more cytotoxic / more sensitive; extreme values may be limits of the assay
What all share (settings): 72 h; doses 0.5, 1, 5 µM

Assay [1] deals with OVCAR3.
For assay [2], the system named is OVCAR4.
The test system of assay [3] is Kuramochi.

Structures can show the parent of a compound that is named as a salt. Several reference drugs read as weak here; read low effects with care.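 All three lines are high-grade serous ovarian cancer cells differing in chemosensitivity, with OVCAR3 described as the chemosensitive one. Toxicity was scaled between DMSO vehicle wells and fully lysed wells, the score derives from a fitted multi-dose response curve, and the authors counted a score above 5 as drug sensitivity.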

As for `Nc1ccn([C@@H]2O[C@H](CO)[C@@H](O)C2(F)F)c(=O)n1` [Gemcitabine (hydrochloride)], the drug sensitivity score in assay [1], in assay [2] and in assay [3] was 0 DSS each time.

As for `CCn1c2ccccc2c2cc(CNC)ccc21` [PhiKan 083 hydrochloride], the drug sensitivity score in assay [1], in assay [2] and in assay [3] was 0 DSS throughout.

As to `N=C(N)NC(=N)NCCc1ccccc1` [Phenformin (hydrochloride)], the drug sensitivity score in assay [1], in assay [2] and in assay [3] was 0 DSS each time.

Take `CN(C)C(=O)c1cc2cnc(Nc3ccc(N4CCNCC4)cn3)nc2n1C1CCCC1` [Ribociclib hydrochloride]: the drug sensitivity score in assay [1], in assay [2] and in assay [3] was 0 DSS each time.

`COc1cc2c(cc1OC)[C@@H]1Cc3ccc(OC)c(OC)c3CN1CC2` [Tetrahydropalmatine]: the drug sensitivity score in assay [1], in assay [2] and in assay [3] was 0 DSS in each case.

For the molecule `Nc1nc(Cl)nc2c1ncn2[C@H]1C[C@H](O)[C@@H](CO)O1` [Cladribine], the figures for the drug sensitivity score in assay [1], in assay [2] and in assay [3] were 2.3 DSS, 0 DSS and 1.5 DSS, respectively.

As for `Nc1c(Br)cc(Br)cc1CN[C@H]1CC[C@H](O)CC1` [Ambroxol (hydrochloride)], the drug sensitivity score in assay [1], in assay [2] and in assay [3] was 0 DSS in each case.

For `CC(C(=O)O)c1ccc2c(c1)[nH]c1ccc(Cl)cc12` (stereo not drawn) [Carprofen], the drug sensitivity score in assay [1] worked out at 0.5 DSS; in assay [2] it was 0 DSS; in assay [3] it was 0.6 DSS.

Turning to `Cn1cnc([N+](=O)[O-])c1Sc1ncnc2[nH]cnc12` [Azathioprine], the drug sensitivity score was found to be 2 DSS in assay [1], 2.7 DSS in assay [2] and 0 DSS in assay [3].

As for `CN(C)c1cc(NC(=O)CNC(C)(C)C)c(O)c2c1C[C@H]1C[C@H]3[C@H](N(C)C)C(=O)C(C(N)=O)=C(O)[C@@]3(O)C(=O)C1=C2O` [Tigecycline], the drug sensitivity score in assay [1], in assay [2] and in assay [3] was 0 DSS each time.

As to `CCN(CC)CC(=O)Nc1c(C)cccc1C` [Lidocaine (hydrochloride)], the drug sensitivity score in assay [1], in assay [2] and in assay [3] was 0 DSS in each case.

Consider `CN1CCC[C@@H]1CCO[C@](C)(c1ccccc1)c1ccc(Cl)cc1` [Clemastine (fumarate)], for which the figures for the drug sensitivity score in assay [1], in assay [2] and in assay [3] were 0.6 DSS, 0 DSS and 0 DSS, respectively.

Take `O=C(c1ccc(F)cc1)C1CCN(CCn2c(=O)[nH]c3ccccc3c2=O)CC1` [Ketanserin]: the drug sensitivity score in assay [1], in assay [2] and in assay [3] was 0 DSS in each case.

Take `COc1cc(C(=O)O)ccc1NC(=O)[C@@H]1N[C@@H](CC(C)(C)C)[C@](C#N)(c2ccc(Cl)cc2F)[C@H]1c1cccc(Cl)c1F` [Idasanutlin]: the drug sensitivity score in assay [1], in assay [2] and in assay [3] was 0 DSS in each case.

With `C[C@H](Oc1cc(-c2cnn(C3CCNCC3)c2)cnc1N)c1c(Cl)ccc(F)c1Cl` [(S)-Crizotinib], the drug sensitivity score in assay [1], in assay [2] and in assay [3] was 0 DSS in each case.

With `CC[C@H]1[C@@H](O)[C@@H]2[C@H](CC[C@]3(C)[C@@H]([C@H](C)CCC(=O)O)CC[C@@H]23)[C@@]2(C)CC[C@@H](O)C[C@@H]12` [Obeticholic acid], the drug sensitivity score in assay [1], in assay [2] and in assay [3] was 0 DSS in each case.

In the case of `CC(=O)O[C@]1(C(C)=O)CC[C@H]2[C@@H]3CCC4=CC(=O)CCC4=C3[C@@H](c3ccc(N(C)C)cc3)C[C@@]21C` [Ulipristal acetate], the drug sensitivity score in assay [1], in assay [2] and in assay [3] was 0 DSS each time.

Turning to `Cc1c(C)c2c(c(C)c1O)CCC(C)(CCCC(C)CCCC(C)CCCC(C)C)O2` (racemic) [DL-alpha-Tocopherol], the drug sensitivity score in assay [1], in assay [2] and in assay [3] was 0 DSS in each case.

Take `NC[C@H](O)c1ccc(O)c(O)c1` [Norepinephrine (hydrochloride)]: the drug sensitivity score in assay [1], in assay [2] and in assay [3] was 0 DSS throughout.

Take `COc1ccc2cc([C@H](C)C(=O)O)ccc2c1` [Naproxen (sodium)]: the drug sensitivity score in assay [1], in assay [2] and in assay [3] was 0 DSS each time.

Take `NCCCNCCS` [Amifostine thiol (dihydrochloride)]: the drug sensitivity score in assay [1], in assay [2] and in assay [3] was 0 DSS in each case.

As for `Cn1cnc2c(F)c(Nc3ccc(Br)cc3F)c(C(=O)NOCCO)cc21` [Binimetinib], the drug sensitivity score in assay [1], in assay [2] and in assay [3] was 0 DSS each time.

With `OC[C@@H](O)[C@H](O)[C@@H](O)CO` [Xylitol], the drug sensitivity score in assay [1], in assay [2] and in assay [3] was 0 DSS throughout.

Regarding `Cc1ncc(CO)c(CO)c1O` [Metadoxine], the drug sensitivity score in assay [1], in assay [2] and in assay [3] was 0 DSS throughout.

As to `O=P(O)(O)C(O)(Cn1ccnc1)P(=O)(O)O` [Zoledronic acid (monohydrate)], the drug sensitivity score in assay [1], in assay [2] and in assay [3] was 0 DSS in each case.

As to `CCc1ccc(CCOc2ccc(CC3SC(=O)NC3=O)cc2)nc1` (stereo not drawn) [Pioglitazone (hydrochloride)], the drug sensitivity score in assay [1], in assay [2] and in assay [3] was 0 DSS throughout.

In the case of `CC(C)(C)c1cc(C(C)(C)C)c(NC(=O)c2c[nH]c3ccccc3c2=O)cc1O` [Ivacaftor], the drug sensitivity score in assay [1], in assay [2] and in assay [3] was 0 DSS throughout.

`COc1cc2c3cc1Oc1c(OC)c(OC)cc4c1[C@@H](Cc1ccc(O)c(c1)Oc1ccc(cc1)C[C@@H]3N(C)CC2)N(C)CC4` [Berbamine (dihydrochloride)]: the drug sensitivity score in assay [1], in assay [2] and in assay [3] was 0 DSS throughout.

Consider `Cc1c(C(=O)Nc2ccc(N3C[C@@H](C)O[C@@H](C)C3)nc2)cccc1-c1ccc(OC(F)(F)F)cc1` [Sonidegib (diphosphate)], for which the drug sensitivity score in assay [1], in assay [2] and in assay [3] was 0 DSS each time.

`NC(=O)N1c2ccccc2C=Cc2ccccc21` [Carbamazepine]: the drug sensitivity score in assay [1], in assay [2] and in assay [3] was 0 DSS in each case.

In the case of `CCN(CC)CCNC(=O)c1ccc(N)cc1` [Procainamide (hydrochloride)], the drug sensitivity score in assay [1], in assay [2] and in assay [3] was 0 DSS each time.

For `CN(CCOc1ccc(CC2SC(=O)NC2=O)cc1)c1ccccn1` (stereo not drawn) [Rosiglitazone (maleate)], the drug sensitivity score in assay [1], in assay [2] and in assay [3] was 0 DSS each time.

`CC(C)(C)NC(=O)[C@@H]1C[C@@H]2CCCC[C@@H]2CN1C[C@@H](O)[C@H](Cc1ccccc1)NC(=O)[C@H](CC(N)=O)NC(=O)c1ccc2ccccc2n1` [Saquinavir (Mesylate)]: the results for the drug sensitivity score in assay [1], in assay [2] and in assay [3] were 2.3 DSS, 1.8 DSS and 0 DSS, respectively.

On to `O=S(=O)(c1cccc2c(O)nccc12)N1CCCNCC1` [Hydroxyfasudil (hydrochloride)], for which the drug sensitivity score stood at 2.7 DSS in assay [1], 2.7 DSS in assay [2] and 0.9 DSS in assay [3].

Regarding `CC(=O)OCC(=O)[C@@]1(O)CC[C@H]2[C@@H]3CCC4=CC(=O)CC[C@]4(C)[C@@]3(F)[C@@H](O)C[C@@]21C` [Fludrocortisone acetate], the drug sensitivity score in assay [1], in assay [2] and in assay [3] was 0 DSS throughout.

On to `COc1ccc2[nH]cc(CCNC(C)=O)c2c1` [Melatonin], for which the drug sensitivity score in assay [1], in assay [2] and in assay [3] was 0 DSS in each case.

As for `CCC(C)n1ncn(-c2ccc(N3CCN(c4ccc(OCC5COC(Cn6cncn6)(c6ccc(Cl)cc6Cl)O5)cc4)CC3)cc2)c1=O` (stereo not drawn) [Itraconazole], the drug sensitivity score in assay [1], in assay [2] and in assay [3] was 0 DSS in each case.

For the molecule `CCCCCCCC/C=C\CCCCCCCC(=O)[O-].[Na+]` [Sodium oleate], the drug sensitivity score in assay [1], in assay [2] and in assay [3] was 0 DSS each time.

As to `N#Cc1c2ccc(N)cc2nc2cc(N)ccc12` [CTX1], the drug sensitivity score in assay [1], in assay [2] and in assay [3] was 0 DSS each time.

As to `CCOC(=O)c1[nH]c2cc(Cl)ccc2c1C(C(=O)NC(C)(C)C)N(C=O)Cc1ccc(Cl)cc1` (stereo not drawn) [YH239-EE], the drug sensitivity score in assay [1], in assay [2] and in assay [3] was 0 DSS each time.

Consider `Oc1ccc(/C=C/c2cc(O)cc(O)c2)cc1` [Resveratrol], for which the drug sensitivity score in assay [1], in assay [2] and in assay [3] was 0 DSS in each case.
